Results from patent publication US7432247B2, “Methods of cardioprotection using dichloroacetate in combination with an inotrope” (The Governors of the University of Alberta, priority 2002, dated 2008).
“Also recorded” adds a separate entry of the source. At least one compound was matched to its structure with a doubt left.

Assays:
[1] = tested on: pyruvate dehydrogenase (PDH); experiment: PDH activity in ventricular biopsies of CABG patients (Example A); assay type: in vivo, human; conditions: 50 mg/kg bolus vs placebo; early reperfusion period
[2] = Blood lactate levels in CABG patients (Example A); assay type: in vivo, human; conditions: 50 mg/kg bolus vs placebo; reperfusion
[3] = Pediatric heart surgery study, single DCA bolus vs placebo: inotrope score, ICU time, ventilator time, echocardiography (Example B); assay type: in vivo, human; conditions: 50 mg/kg bolus; pediatric patients; first 1 hour following surgery
isolated rat hearts = conditions: cited from earlier work

O=C(O)C(Cl)Cl [DCA, dichloroacetate]
PDH activity in heart muscle biopsies [1]: increased significantly; also recorded: significant increase
lactate levels [2]: significantly decreased
One-hour Inotrope Score (need for inotropic drugs) compared to placebo [3]: significantly reduced; also recorded: significantly lower
dose range effective in increasing PDH levels and improving myocardial function (isolated rat hearts; isolated perfused hearts): about 1 mM
glucose oxidation (isolated rat hearts; isolated rat hearts, reperfusion): dramatic stimulation
proton production (isolated rat hearts; reperfused ischemic heart): dramatically decreases
